According to article doi:10.1101/2023.01.21.525018:
Like-named read-outs stand apart in the source and are kept apart here. No constants are given. Whether binding was seen depends on the method and setting. Binding seen in cells or lysates may run through a third protein. Some results given as binding are weak or reduced against the parent protein; the word gives no strength. Tags and fused reporters may be left off the sequences shown. Blank lines part the entries; values can stand above or below the binder they belong to.

Tests used:
Test in all cases: split reporter
Psm1-cYFP (S. pombe) = molecular target: T1, Psm1-cYFP (S. pombe) (UniProt O94383)
T1 sequence: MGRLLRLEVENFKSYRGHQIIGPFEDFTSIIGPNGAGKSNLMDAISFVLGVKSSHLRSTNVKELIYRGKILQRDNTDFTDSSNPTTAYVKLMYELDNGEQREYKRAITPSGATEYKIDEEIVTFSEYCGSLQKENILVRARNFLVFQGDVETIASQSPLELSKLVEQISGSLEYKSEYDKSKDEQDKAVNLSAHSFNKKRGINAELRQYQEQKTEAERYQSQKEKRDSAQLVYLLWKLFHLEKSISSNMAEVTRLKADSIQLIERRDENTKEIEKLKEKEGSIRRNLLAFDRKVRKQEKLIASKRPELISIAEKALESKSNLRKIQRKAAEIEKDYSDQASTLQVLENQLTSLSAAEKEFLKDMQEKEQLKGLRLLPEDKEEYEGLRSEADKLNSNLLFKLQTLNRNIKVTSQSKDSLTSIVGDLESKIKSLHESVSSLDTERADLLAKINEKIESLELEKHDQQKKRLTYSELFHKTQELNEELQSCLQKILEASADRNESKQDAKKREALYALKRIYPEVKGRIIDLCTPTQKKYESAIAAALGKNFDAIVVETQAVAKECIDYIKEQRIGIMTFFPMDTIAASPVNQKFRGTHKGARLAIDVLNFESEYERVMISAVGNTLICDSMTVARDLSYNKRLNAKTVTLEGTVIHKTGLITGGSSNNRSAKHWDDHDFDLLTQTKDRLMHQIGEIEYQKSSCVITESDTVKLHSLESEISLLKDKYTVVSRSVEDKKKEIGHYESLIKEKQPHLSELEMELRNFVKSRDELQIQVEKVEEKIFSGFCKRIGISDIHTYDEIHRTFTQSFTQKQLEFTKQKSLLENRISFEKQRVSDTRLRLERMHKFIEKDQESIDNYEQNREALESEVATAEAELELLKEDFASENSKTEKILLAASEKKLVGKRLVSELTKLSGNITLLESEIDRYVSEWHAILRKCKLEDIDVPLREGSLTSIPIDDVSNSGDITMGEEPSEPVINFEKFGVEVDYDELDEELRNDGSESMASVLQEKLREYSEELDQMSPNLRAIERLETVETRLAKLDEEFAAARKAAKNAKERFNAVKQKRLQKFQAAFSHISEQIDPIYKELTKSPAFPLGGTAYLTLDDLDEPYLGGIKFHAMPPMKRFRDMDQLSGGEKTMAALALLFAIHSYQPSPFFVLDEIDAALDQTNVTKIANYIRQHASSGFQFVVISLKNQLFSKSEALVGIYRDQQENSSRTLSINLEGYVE

Psm1-nYFP (S. pombe) [1] = molecular target: T2, Psm1-nYFP (S. pombe) (UniProt O94383)
T2 sequence: T1 sequence

Psm1-nYFP (S. pombe) [2] = molecular target: T2, Psm1-nYFP (S. pombe); remark: listed apart in the source

binding (Psm1-cYFP (S. pombe)): binds
B1: Rad21-nYFP (protein, UniProt P30776 1-628)
chain: MFYSEAILSKKGPLAKVWLAAHWEKKLSKVQTLHTSIEQSVHAIVTEETAPMALRLSGQLMLGVVRIYSRKARYLLEDCTEALMRLKMSFQPGQVDMIEPATALQSLKGKDAVTQSANLTLPETITEFDLLVPDSTFDFQWSQLLRTPSRSSNTLELHSLPISSSPSFPSSQLSIEAGRNAQVESGFSLGESFAHVGNDMQFHLPISNSGAATPRSVHSDNQSQISIEVGRDAPAAAATDLSGIIGPQMTKSPASSVTHFSTPSMLPIGGTSLDDELLAPVDDLNLDLGLDDLLGDEQGANAPAIEADEQAETSSIHLPSDIMEDDSSRPAAAGVEEGQVVESATAPQQEKINPQKTVRRQRAIIDPVTELSSKQMKKQLADTSSITSPLCLNTSSIVFNATVNFTRNGKFNTSIFSSNLNPKVNELLQADFKQAILRKRKNESPEEVEPAKHQRTDTSTENQETAEVLDPEEIAAAELANITEAAIATLPQETVVQPEGEAPELGSPMGFPVTALESADDSLFDAPPVMLDEADLLGSERLDSSVSEALPSSQTAKDSLRNKWDPYTEGEKVSFQTLSAGCNREEAVQLFFDVLVLATKDVISVKQDVAIQNEITLTAKRGMLLSSL

binding (Psm1-nYFP (S. pombe) [1]): binds
binding (Psm1-nYFP (S. pombe) [2]): binds weakly
B2: Rad21-cYFP (protein, UniProt P30776 1-628)
chain: B1 chain
